Measured values as given in PubChem BioAssay AID493014 (National Center for Advancing Translational Sciences (NCATS), 2011).
Screen size: about 340,000 compounds; about 170 (0.05%) were called active. The shares of active, inactive and inconclusive entries below differ from those in the screen. Calls come from the whole dose curve; as a rule, active = well fitted inhibition curve with a large enough effect in the signal ratio, with a control signal flat (not every such curve was filed as active); inconclusive = small, poorly fitted or top-dose-only effect, or effect the other way, or a change in a side signal; inactive = flat fitted curve, though single readings scatter; the % refers to the signal ratio. Where the call is inconclusive, the potency comes from a doubtful curve fit.
Potency is the fitted concentration of half-maximal effect.

Test: qHTS Assay to Find Inhibitors of Chronic Active B-Cell Receptor Signaling;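 for activity change, negative = inhibition: plate controls were basal doxycycline-induced cells for no effect and cells given 10 µM MG132 for full effect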
Conditions: ABC-DLBCL IkBa-CBG/CBR reporter, luminescence ratio (green luciferase fused to IkBa over red control in TMD8 lymphoma cells), 4 h; activity change, negative = inhibition: at 46.1 µM (top of the series)
Method in brief: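 Concentration-response series (up to 46 uM) were applied to TMD8 dual-reporter cells for 4 h at 37C with doxycycline. Green/red ratio, after filter-overlap correction, defined %Activity; red signal alone was normalised to basal cells and zero luminescence.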
For COc1cc(OC)c2c(-c3ccccc3)cc(=O)oc2c1, the Potency was inconclusive: 14.1 µM [falling, partial curve, poor fit].
For CNC[C@H](CC1CCCCC1)NC[C@H](NCCC1CCCC1)[C@H](C)O, the Potency was inconclusive: 15.8 µM [falling, partial curve].
With CCc1nnc(NC(=O)c2nc(S(=O)(=O)Cc3ccccc3)ncc2Cl)s1 the Potency was inconclusive: 0.631 µM [rising, full curve].
With CCN1C(=O)/C(=C\c2ccc(-c3ccc([N+](=O)[O-])cc3OC)o2)SC1=Nc1cccc(C(=O)O)c1 the activity change, negative = inhibition was inconclusive: 1.69%.
In the case of O=C(N/N=C/c1cc2c(cc1Cl)OCO2)c1ccc2c(c1)OCCO2, the Potency is reported as inconclusive: 3.55 µM [falling, full curve].
In the case of O=[N+]([O-])c1ccc(C2=NCCO2)cc1, the activity change, negative = inhibition is reported as “inactive”.
For CN1c2ccsc2C(O)=C(C(=S)Nc2ccc(F)c(Cl)c2)S1(=O)=O, the Potency was inconclusive: 25.9 µM [falling, single point].
With N#C/C(=N\Nc1ccc(F)cc1)C(=O)C1CC1 the activity change, negative = inhibition was inconclusive: 13.8%.
With COc1cccc(NC(=O)CSc2nc3c(sc4ccccc43)c(=O)n2CCN(C)C)c1 the Potency was inconclusive: 11.2 µM [falling, partial curve].
With COc1ccccc1C(=O)NNC(=O)c1csc(N2CCOCC2)n1 the Potency was inconclusive: 16.4 µM [falling, single point].
In the case of COc1ccc(-n2cc(CNCCc3cnc[nH]3)c(-c3cccc(F)c3)n2)cc1, the activity change, negative = inhibition is reported as inconclusive: -29.4%.
With CCOC(=O)COc1ccc2nsnc2c1Cl the activity change, negative = inhibition was “inactive”.
For COc1cc(C(=O)N[C@H](C(=O)OCC(=O)NC2CCCCCC2)C(C)C)cc(OC)c1OC, the activity change, negative = inhibition was inconclusive: -14%.
With CCCCn1c(Oc2cccc(C(=O)OC)c2)nc2c1c(=O)n(C)c(=O)n2C the activity change, negative = inhibition was “inactive”.
For CCCCCCCOC(=O)C[N+](C)(C)CCOC1CC2CCC1(C)C2(C)C (stereo not drawn), the activity change, negative = inhibition was inconclusive: 13.1%.
In the case of CCCCN(CCCC)c1nc(OC)nc(-n2nnc(C(C)=O)c2C)n1, the Potency is reported as inconclusive: 6.31 µM [rising, partial curve, poor fit].
With Cc1ccc(-n2nnnc2SCC(=O)c2ccc3c(c2)NC(=O)CO3)c(C)c1 the activity change, negative = inhibition was inconclusive: 5.08%.
For C=CCn1c(C)cc(C(=O)CSc2nnc(NCc3ccccc3)s2)c1C, the Potency was inconclusive: 17.8 µM [falling, partial curve, poor fit].
With COc1ccccc1N1CCN(C(c2cc3ccc(C)cc3[nH]c2=O)c2nnnn2C2CCCC2)CC1 (stereo not drawn) the activity change, negative = inhibition was “inactive”.
For CC(C)C(=O)Nc1nc2c(c(=O)[nH]1)CCCC2, the Potency was inconclusive: 17.8 µM [falling, single point].
With CCOc1ccccc1C(=O)OCC(=O)Nc1cc(Cl)ccc1Oc1ccccc1 the activity change, negative = inhibition was inconclusive: 4.59%.
For COc1cccc2c1O/C(=N\O)C(C(=O)Nc1cccc(Br)c1)C2 (stereo not drawn), the activity change, negative = inhibition was inconclusive: -1.67%.
For Nc1nc(O)c(CC(=O)O)s1, the activity change, negative = inhibition was inconclusive: 10.4%.
For O=C(Cc1ccccc1F)c1ccc(O)cc1O, the activity change, negative = inhibition was inconclusive: 0.498%.
With O=C(CCOc1ccccc1)Nc1ccc(Br)cc1 the activity change, negative = inhibition was inconclusive: 5.63%.
With Cc1ccn2cc(-c3cccc([N+](=O)[O-])c3)nc2c1 the activity change, negative = inhibition was inconclusive: -17.1%.
In the case of CCCCOc1ccc(-c2nnn(CC(=O)Nc3ncc(CC(=O)OCC)s3)n2)cc1, the Potency is reported as inconclusive: 29.1 µM [falling, single point].
With COc1cc(/C=N/NC(=O)Nc2ccccc2)ccc1OC(C)=O the Potency was inconclusive: 23.1 µM [falling, single point].
In the case of O=C(Nc1ccc(F)cc1)N1CCN2C(=O)c3ccccc3C12c1ccccc1 (stereo not drawn), the activity change, negative = inhibition is reported as inconclusive: 22.4%.
With COC(=O)c1cc2nc(-c3ccc(OC)c(OC)c3)cc(C(F)(F)F)n2n1 the activity change, negative = inhibition was inconclusive: 0.804%.
In the case of CCOC(=O)c1ccc(N2CCN(c3cc(C)ccc3C)CC2)c(N)c1, the activity change, negative = inhibition is reported as “inactive”.
With O=C(O)c1nn2cc(CCO)cnc2c1Cl the Potency was inconclusive: 11.2 µM [falling, partial curve, poor fit].
In the case of Cc1ccc(Nc2nc(N)nc(CSC(=S)N3CCOCC3)n2)c(C)c1, the activity change, negative = inhibition is reported as “inactive”.
For COc1ccc(F)cc1C(=O)C1CCCN(Cc2c[nH]c3ccccc23)C1 (stereo not drawn), the Potency was inconclusive: 8.91 µM [falling, partial curve, poor fit].
With Cc1ccc(C(=O)N2CCSC2=S)cc1 the Potency was inconclusive: 12.6 µM [falling, single point].
In the case of CN1/C(=c2/s/c(=C3/C(=O)N(c4ccccc4)NC3=Nc3ccccc3)n(C)c2=O)C(C)(C)c2ccccc21, the activity change, negative = inhibition is reported as inconclusive: 14.1%.
For COc1ccccc1CN(Cc1cc2cc(C)cc(C)c2[nH]c1=O)Cc1nnnn1CC1CCCO1 (stereo not drawn), the Potency was inconclusive: 35.5 µM [falling, single point].
In the case of COc1ccc(CNC(=O)COC(=O)c2cnccn2)cc1, the activity change, negative = inhibition is reported as inconclusive: -1.92%.
For O=C(CC(Nc1ccc(F)cc1)c1ccccc1)c1ccccc1 (stereo not drawn), the activity change, negative = inhibition was inconclusive: 1.59%.
With CCOc1cc(N2CCOCC2)c(OCC)cc1NC(=O)c1ccc2ncsc2c1 the Potency was inconclusive: 18.4 µM [falling, partial curve, poor fit].
In the case of O=C(NCCN1CCOCC1)c1cccnc1SCc1ccccc1Cl, the activity change, negative = inhibition is reported as inconclusive: 8.86%.
For CCCc1[nH]nc2c1C(C1CC=CCC1)C(C#N)=C(N)O2 (stereo not drawn), the Potency was inconclusive: 20.6 µM [falling, single point].
In the case of COC(=O)CN(C)C(=O)c1ccc(OC2CCN(S(=O)(=O)N(C)C)CC2)cc1, the activity change, negative = inhibition is reported as “inactive”.
With Cc1cc(C)cc(C(=O)N2CC(=O)Nc3ccc(Br)cc3C2c2ccccc2)c1 (stereo not drawn) the activity change, negative = inhibition was “inactive”.
With CCCCOc1ccc(C2C(=O)N(C3CCCCC3)CC(=O)N2CCCC)cc1 (stereo not drawn) the activity change, negative = inhibition was “inactive”.
For COc1ccccc1NC(=S)N1CCCC1, the activity change, negative = inhibition was inconclusive: 1.29%.
In the case of CN(C)/N=C/c1c(O)ccc2ccccc12, the activity change, negative = inhibition is reported as inconclusive: 1.04%.
For COc1ccc(CN(C)C(=O)C(Cc2ccccc2)NC(=O)c2ccccc2)cc1F (stereo not drawn), the Potency was inconclusive: 20.6 µM [falling, partial curve].
With Cc1ccccc1NC(=O)CSc1nnc(NC(=O)c2ccco2)s1 the activity change, negative = inhibition was “inactive”.
For CN(C)c1cccc(/C=C(\C#N)c2ccccc2)c1, the Potency was inconclusive: 35.5 µM [cytotoxic, single point].
With COc1cc(S(=O)(=O)n2ccc(C)n2)ccc1Cl the activity change, negative = inhibition was inconclusive: 3.68%.
With CC(OC(=O)c1cccc(N(C)C)c1)C(=O)N1CCc2ccccc2C1 (stereo not drawn) the activity change, negative = inhibition was “inactive”.
For CN(CC(=O)Nc1ccc(F)cc1)C(=O)CSc1nncs1, the Potency was inconclusive: 15.8 µM [falling, partial curve].
With CCOC(=O)C(=O)/C(C#N)=C/Nc1ccccc1 the activity change, negative = inhibition was inconclusive: 22.4%.
With O=C(Nc1ccc(F)cc1)N(Cc1ccco1)Cc1cc2cc3c(cc2[nH]c1=O)OCO3 the activity change, negative = inhibition was inconclusive: 9.67%.
For COc1ccccc1-n1cnc(N)c1C(C)=O, the Potency was inconclusive: 29.1 µM [rising, partial curve, poor fit].
In the case of Cc1cc(NC(=O)CCN2CCN(C)CC2)ccc1Br, the activity change, negative = inhibition is reported as “inactive”.
For CCn1c2ccccc2c2cc(CN3CCN(S(C)(=O)=O)CC3)ccc21, the activity change, negative = inhibition was “inactive”.
With COc1ccc2nc(SCC(=O)Nc3ccc4sc(C)nc4c3)c(C#N)cc2c1 the activity change, negative = inhibition was “inactive”.
With COc1ccc(OCC(=O)Nc2sc3c(c2C(=O)NCC2CCCO2)CCC3)cc1 (stereo not drawn) the activity change, negative = inhibition was inconclusive: 15%.
For CCOc1ccccc1OCCCC(=O)Nc1ccc(Cl)c(S(=O)(=O)N2CCOCC2)c1, the activity change, negative = inhibition was “inactive”.
In the case of Cc1ccccc1NC(=O)c1ccc(Nc2c([N+](=O)[O-])cc([N+](=O)[O-])c3ccccc23)cc1, the activity change, negative = inhibition is reported as inconclusive: -5.33%.
For CCOC(=O)N1CCN(C(=O)c2ccc(C#CC3(O)CCCCC3)cc2)CC1, the activity change, negative = inhibition was inconclusive: -1.78%.
In the case of O=C(N/N=C/c1cccs1)c1ccc2ccccc2c1, the Potency is reported as inconclusive: 35.5 µM [falling, single point].
For Cc1nn(C)c(C)c1S(=O)(=O)N(CC(=O)N1CCc2ccccc2C1)c1ccc(C(C)C)cc1, the activity change, negative = inhibition was “inactive”.
For CCC(NC(=O)Nc1nccs1)(C(F)(F)F)C(F)(F)F, the activity change, negative = inhibition was “inactive”.
In the case of NS(=O)(=O)c1cccc(NC(=O)CSc2ncnc3ccccc23)c1, the Potency is reported as inconclusive: 10 µM [falling, partial curve, poor fit].
For Cc1cccc(C)c1NC(=O)C(c1ccc([N+](=O)[O-])cc1)N(C)C(=O)c1ccccn1 (stereo not drawn), the activity change, negative = inhibition was “inactive”.
In the case of CCc1ccc2nc(Nc3nc(COC)cc(=O)[nH]3)nc(C)c2c1, the Potency is reported as inconclusive: 11.2 µM [falling, partial curve, poor fit].
With CC(=C/c1ccccc1)/C=N/n1c(C)n[nH]c1=S the Potency was inconclusive: 35.5 µM [cytotoxic, single point].
For COc1ccc(-c2coc3cc(O)cc(O)c3c2=O)cc1OC, the activity change, negative = inhibition was inconclusive: 0.294%.
For CC(=O)Oc1c(-c2ccco2)oc2ccccc2c1=O, the activity change, negative = inhibition was inconclusive: -4.19%.
With CCOc1ccc(-c2nc3ccccc3c(=O)o2)cc1 the Potency was inconclusive: 17.8 µM [falling, partial curve].
For COc1ccc(N(CC(=O)Nc2c(C)n(C)n(-c3ccccc3)c2=O)S(=O)(=O)c2ccc(C)cc2)cc1, the Potency was inconclusive: 35.5 µM [falling, single point].
For CCCC1(C(=O)O)NC(c2cccc(OC)c2O)C2C(=O)N(c3ccccc3)C(=O)C21 (stereo not drawn), the Potency was inconclusive: 16.4 µM [falling, single point].
In the case of O=C(CN1C(=O)c2ccccc2C1=O)OCC(=O)c1ccccc1, the activity change, negative = inhibition is reported as inconclusive: 16.9%.
In the case of COc1ccc(OC)c(CNC(=O)CCc2cn(C)c3ccccc23)c1, the activity change, negative = inhibition is reported as inconclusive: -8.87%.
In the case of CCN1CCN(c2cc(SC(C)C)nc(-c3ccc(OC)cc3)n2)CC1, the Potency is reported as inconclusive: 35.5 µM [falling, single point].
